Test results reported in US20150218246A1.
No constants are given. Whether binding was seen depends on the method and setting. For some assays here: Binding seen in cells or lysates may run through a third protein. Some entries that bind do so weakly or less than the wild type. Where a sequence is shown, tags or fusion partners need not be part of it.

By UniProt entry, the sequences of proteins in these tests, tags left out. Residues count along the entry.
UniProt O00206, residues 24-839: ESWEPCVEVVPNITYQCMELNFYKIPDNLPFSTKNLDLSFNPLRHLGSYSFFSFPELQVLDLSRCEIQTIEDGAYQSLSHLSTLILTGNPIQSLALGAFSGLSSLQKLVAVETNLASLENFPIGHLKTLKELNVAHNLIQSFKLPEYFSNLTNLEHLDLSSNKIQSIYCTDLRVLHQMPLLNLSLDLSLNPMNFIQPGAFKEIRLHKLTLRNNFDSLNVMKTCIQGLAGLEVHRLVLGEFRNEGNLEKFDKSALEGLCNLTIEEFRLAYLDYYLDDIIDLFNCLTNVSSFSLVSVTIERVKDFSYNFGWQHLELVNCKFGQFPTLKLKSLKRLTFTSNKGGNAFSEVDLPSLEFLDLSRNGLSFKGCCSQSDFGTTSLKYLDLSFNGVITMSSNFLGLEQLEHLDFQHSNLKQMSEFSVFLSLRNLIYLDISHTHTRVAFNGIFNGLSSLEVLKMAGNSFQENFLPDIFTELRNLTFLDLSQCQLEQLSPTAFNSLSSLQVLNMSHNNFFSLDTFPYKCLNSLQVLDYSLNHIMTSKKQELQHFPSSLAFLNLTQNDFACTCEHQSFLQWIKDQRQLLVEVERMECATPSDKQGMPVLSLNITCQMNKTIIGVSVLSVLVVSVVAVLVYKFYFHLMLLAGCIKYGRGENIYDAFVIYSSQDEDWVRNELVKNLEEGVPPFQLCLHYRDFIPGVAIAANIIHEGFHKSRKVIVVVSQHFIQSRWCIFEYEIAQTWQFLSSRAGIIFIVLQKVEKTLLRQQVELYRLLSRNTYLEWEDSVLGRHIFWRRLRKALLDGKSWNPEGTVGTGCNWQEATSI

B1: Myc-tagged MD-2s (alternatively spliced short isoform of human MD-2) (protein, not shown: small tags and cut ends)
chain: QKQYWVCNSSDASISYTYCGRDLKQLYFNLYITVNTMNLPKRKEVICRGSDDDYSFCRALKGETVNTTISFSFKGIKFSKGKYKCVVEAISGSPEEMLFCLEFVILHQPNSN
modifications: N-linked glycosylated (slower migrating forms removed by PNGase F)
B2: Myc-tagged wild-type human MD-2 (protein, UniProt Q9Y6Y9 19-160, looked up, not shown: small tags and cut ends)
chain: QKQYWVCNSSDASISYTYCDKMQYPISINVNPCIELKRSKGLLHIFYIPRRDLKQLYFNLYITVNTMNLPKRKEVICRGSDDDYSFCRALKGETVNTTISFSFKGIKFSKGKYKCVVEAISGSPEEMLFCLEFVILHQPNSN
B3: Myc-tagged wild-type human MD-2, Q9Y6Y9 19-160 (protein, UniProt Q9Y6Y9 19-160, looked up, not shown: small tags and cut ends)
chain: B2 chain

Experiments:
[1] = target: T1, Flag-tagged human wild-type MD-2 (human) (UniProt Q9Y6Y9); experiment: co-immunoprecipitation from HEK293 lysates: anti-Flag pull-down of Flag-MD-2, anti-Myc immunoblot (FIG. 6A)
T1 sequence (looked up): B2 chain

Flag-tagged TLR4 [2] = target: Flag-tagged TLR4 (UniProt O00206); experiment: co-immunoprecipitation from HEK293 lysates: anti-Flag pull-down, anti-Myc immunoblot
[3] = target: TLR4-mCitrine stably expressed on HEK293T cells (UniProt O00206); experiment: flow cytometry and confocal imaging: anti-myc surface staining of HEK293T TLR4-mCitrine cells transfected with the myc-tagged protein
[4] = target: T1, Flag-tagged human wild-type MD-2 (human); experiment: co-immunoprecipitation from HEK293 lysates: anti-Flag pull-down of Flag-MD-2, anti-Myc immunoblot
Flag-tagged TLR4 [5] = target: Flag-tagged TLR4 (UniProt O00206); experiment: co-immunoprecipitation from HEK293 lysates: anti-Flag pull-down, anti-Myc immunoblot (FIG. 4B)
[6] = target: T2, Flag-tagged human wild-type MD-2 (human), Q9Y6Y9; experiment: co-immunoprecipitation from HEK293 lysates: anti-Flag pull-down of Flag-MD-2, anti-Myc immunoblot; conditions: remark: other sources report otherwise
T2 chain: B2 chain

Row | Binder | binding [1] | binding (Flag-tagged TLR4 [2]) | binding [3] | binding [4] | binding (Flag-tagged TLR4 [5]) | binding [6]
1 | B1 | binds | binds | binds | binds | binds | –
2 | B2 | – | binds | binds | – | – | –
3 | B3 | – | – | – | – | – | binds
